Experimental data: paper PMC2967473, “PP2A1 Binding, Cell Transducing and Apoptotic Properties of Vpr77–92: A New Functional Domain of HIV-1 Vpr Proteins” (PLoS ONE, 2010)
These are yes or no findings as the source states them, for the method shown. For some assays here: A result given as binding can be weak or reduced; the word gives no strength.

What was measured:
[1] = molecular target: T1, 89.6-Vpr dodecapeptide 29 (cellulose-bound) (HIV-1 (89.6 isolate)); test: peptide or protein array; both purified
T1 sequence (peptide): VEALIRILQQLL

[2] = molecular target: T2, 89.6-Vpr dodecapeptide 30 (cellulose-bound) (HIV-1 (89.6 isolate)); test: peptide or protein array; both purified
T2 sequence (peptide): ALIRILQQLLFI

[3] = molecular target: T3, 89.6-Vpr dodecapeptide 31 (cellulose-bound) (HIV-1 (89.6 isolate)); test: peptide or protein array; both purified
T3 sequence (peptide): IRILQQLLFIHF

[4] = molecular target: T4, 89.6-Vpr dodecapeptide 32 (cellulose-bound) (HIV-1 (89.6 isolate)); test: peptide or protein array; both purified
T4 sequence (peptide): ILQQLLFIHFRI

[5] = molecular target: T5, 89.6-Vpr dodecapeptide 39 (cellulose-bound) (HIV-1 (89.6 isolate)); test: peptide or protein array; both purified
T5 sequence (peptide): RHSRIGIIQQRR

[6] = molecular target: T6, 89.6-Vpr dodecapeptide 40 (cellulose-bound) (HIV-1 (89.6 isolate)); test: peptide or protein array; both purified
T6 sequence (peptide): SRIGIIQQRRTR

[7] = molecular target: T7, 89.6-Vpr dodecapeptide 41 (cellulose-bound) (HIV-1 (89.6 isolate)); test: peptide or protein array; both purified
T7 sequence (peptide): IGIIQQRRTRNG

[8] = molecular target: T8, Recombinant full length Vpr-T protein encoded by the HIV-1 (89.6 isolate) (HIV-1 (89.6 isolate)); test: affinity chromatography; Vpr-T held on a 1 mL nickel-charged iminodiacetic acid-Sepharose-4B column; 16 µg PP2A1 loaded in buffer C (25 mM TrisHCl pH 7.4, 50 mM NaCl, 0.1 mM EDTA), 10 mL wash, 18 mL linear gradient to 1 M NaCl; fractions assayed for phosphorylase a phosphatase activity; both purified
T8 sequence: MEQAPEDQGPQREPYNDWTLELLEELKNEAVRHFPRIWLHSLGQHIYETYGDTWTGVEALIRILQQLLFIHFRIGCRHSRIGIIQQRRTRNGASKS

## trimeric PP2A1 holoenzyme purified from pig brain (complex)
[1]
  binding: no binding
[2]
  binding: no binding
[3]
  binding: no binding
[4]
  binding: no binding
[5]
  binding: binds
[6]
  binding: binds
[7]
  binding: binds
[8]
  binding: binds
